The target of experiment [1] is Toll-like receptor 2 (mouse (endogenous in dendritic cells of C57BL/6 mice)) (UniProt Q9QUN7). Kind of experiment: flow cytometry on cells; DCs derived from WT, TLR2-/- and TLR4-/- mice treated with Rv0652 (0.5 ug/ml) for 1 h, stained with Alexa568-conjugated anti-Rv0652 mAb and FITC-conjugated CD11c Ab; percentage of labelled CD11c+ cells; only the binder purified. Background: A flow cytometer gives signals particle by particle.

By UniProt entry, the sequences of proteins in these tests, tags left out. Residues count along the entry.
UniProt Q9QUN7, residues 25-784: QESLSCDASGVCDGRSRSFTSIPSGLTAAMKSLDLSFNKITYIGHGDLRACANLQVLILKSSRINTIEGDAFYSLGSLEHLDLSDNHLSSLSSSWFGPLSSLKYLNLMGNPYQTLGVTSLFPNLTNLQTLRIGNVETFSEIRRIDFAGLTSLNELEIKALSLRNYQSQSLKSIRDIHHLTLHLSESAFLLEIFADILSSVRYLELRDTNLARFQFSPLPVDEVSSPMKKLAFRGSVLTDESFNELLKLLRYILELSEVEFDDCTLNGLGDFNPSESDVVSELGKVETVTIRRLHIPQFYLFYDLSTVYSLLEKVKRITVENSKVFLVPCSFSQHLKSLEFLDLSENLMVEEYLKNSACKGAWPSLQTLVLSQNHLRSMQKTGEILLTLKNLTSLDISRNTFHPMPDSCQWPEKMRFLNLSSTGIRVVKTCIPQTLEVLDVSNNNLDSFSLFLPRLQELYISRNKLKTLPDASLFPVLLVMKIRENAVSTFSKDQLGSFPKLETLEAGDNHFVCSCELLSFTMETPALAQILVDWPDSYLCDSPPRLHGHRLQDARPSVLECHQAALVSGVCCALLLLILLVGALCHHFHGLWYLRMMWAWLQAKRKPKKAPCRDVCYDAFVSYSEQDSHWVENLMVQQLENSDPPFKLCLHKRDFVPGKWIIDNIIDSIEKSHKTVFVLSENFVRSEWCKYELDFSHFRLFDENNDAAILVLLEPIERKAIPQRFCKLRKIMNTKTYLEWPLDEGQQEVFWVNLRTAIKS
UniProt Q9QUK6, residues 26-835: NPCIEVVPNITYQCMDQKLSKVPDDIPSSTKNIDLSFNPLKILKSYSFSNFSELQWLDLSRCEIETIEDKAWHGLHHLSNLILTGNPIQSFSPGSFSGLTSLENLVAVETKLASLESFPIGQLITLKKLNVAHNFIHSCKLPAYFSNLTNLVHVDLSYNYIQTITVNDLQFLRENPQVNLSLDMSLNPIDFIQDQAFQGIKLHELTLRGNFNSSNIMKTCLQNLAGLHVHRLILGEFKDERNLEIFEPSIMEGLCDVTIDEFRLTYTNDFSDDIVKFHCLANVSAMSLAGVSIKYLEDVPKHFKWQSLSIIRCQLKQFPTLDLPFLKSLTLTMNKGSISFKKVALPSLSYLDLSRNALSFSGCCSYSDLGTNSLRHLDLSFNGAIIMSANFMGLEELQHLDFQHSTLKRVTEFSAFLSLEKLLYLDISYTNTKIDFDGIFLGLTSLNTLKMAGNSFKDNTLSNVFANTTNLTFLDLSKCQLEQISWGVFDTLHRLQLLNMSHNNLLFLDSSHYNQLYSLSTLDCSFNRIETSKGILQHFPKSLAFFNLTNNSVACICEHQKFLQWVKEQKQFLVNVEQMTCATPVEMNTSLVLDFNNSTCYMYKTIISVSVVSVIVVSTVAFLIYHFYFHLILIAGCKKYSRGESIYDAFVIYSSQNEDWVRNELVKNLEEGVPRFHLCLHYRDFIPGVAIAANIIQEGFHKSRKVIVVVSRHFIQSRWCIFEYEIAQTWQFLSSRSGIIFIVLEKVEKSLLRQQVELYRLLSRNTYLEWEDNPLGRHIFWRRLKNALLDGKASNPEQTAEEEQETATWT

The target of experiment [2] is Toll-like receptor 4 (mouse (endogenous in dendritic cells of C57BL/6 mice)) (UniProt Q9QUK6). The description is as above.

Results are given in words; binding and its absence hold for the method and conditions named. Some entries that bind do so weakly or less than the wild type. Tags and fused reporters may be left off the sequences shown.

B1: Recombinant Rv0652 protein, the 50S ribosomal protein L7/L12 (rplL) of Mycobacterium tuberculosis (protein, UniProt P9WHE3 1-130)
chain: MAKLSTDELLDAFKEMTLLELSDFVKKFEETFEVTAAAPVAVAAAGAAPAGAAVEAAEEQSEFDVILEAAGDKKIGVIKVVREIVSGLGLKEAKDLVDGAPKPLLEKVAKEAADEAKAKLEAAGATVTVK
On to B1, for which the binding entry in experiment [1] was “no binding (tested: 0.5 ug/ml)”; in experiment [2], “binds”.

These data come from article PMC4125215.
